# Measurements reported in PubChem BioAssay AID652272 (Drosophila RNAi Screening Center, 2013)
# Assay: 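Genome-wide knock-down search for components of Hedgehog signalling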 (primary screen)
# Cells: Drosophila clone 8 (Cl8) cells
# Reagent: long dsRNA against Drosophila genes
# Measured: 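Firefly light from a Hedgehog-responsive ptc promoter reporter and Renilla reference light, both read on a plate reader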
# Reading the numbers: firefly Hh reporter signal: higher = more ptc reporter light; Renilla reference signal: higher = more Renilla control light
# Rule for the call: 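Hit when the z-score averaged over two replicates is under -2 or over +3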
# Meaning of the calls: active = hit: reporter lowered or raised; inactive = not a hit
# The deposit covers about 21,000 reagents; this is an unselected part of those that have a named target and a result. In the full data, 503 (2.4%) got an active call. 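Raw plate light values, not normalised; calls rest on replicate z-scores that were not deposited; hits include reporter decreases as well as increases.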 Names joined by + are all predicted targets of the reagent. Not stated in the record: the amount of reagent, the time to read-out.
predicted target,dsRNA,"firefly Hh reporter signal, replicate 1","firefly Hh reporter signal, replicate 2","firefly Hh reporter signal, replicate 3","Renilla reference signal, replicate 1","Renilla reference signal, replicate 2",Call
Pits,DRSC19385,1.45e5,2.75e5,,5255,11682,inactive
Pits,DRSC19812,1.71e5,7.84e5,3.95e5,5830,4498,inactive
CG6329,DRSC06976,1.08e5,1.10e5,,5164,4322,inactive
EloC,DRSC07423,68690,69377,,1361,4605,inactive
E(spl)m4-BFM,DRSC16992,5.98e5,98034,,29252,2672,inactive
PAN3,DRSC08190,69291,75173,,3584,3497,inactive
ric8b + ric8a,DRSC18104,88021,2.87e5,,2748,9992,inactive
CG33128,DRSC00294,1.41e5,1.18e5,,3443,3360,inactive
klg,DRSC13591,54836,1.79e5,,12182,3689,inactive
klg,DRSC16978,66875,5.23e5,,3429,30845,inactive
Chchd2,DRSC19931,97404,3.91e5,,2346,15368,inactive
CG8441,DRSC07180,1.05e5,73280,,4816,2855,inactive
ScsbetaA,DRSC14446,91469,66346,,3530,2528,inactive
qin,DRSC14782,6.26e5,1.01e5,,27782,2627,inactive
qin,DRSC14785,7.35e5,1.15e5,,34113,3416,inactive
CG18735,DRSC04312,79835,63396,,2461,6672,inactive
Pxd,DRSC16805,55752,1.17e5,,1301,3109,inactive
Nepl21,DRSC14133,73746,1.16e5,,1162,2533,inactive
Ir60d,DRSC04218,1.18e5,78251,,1665,7141,inactive
lncRNA:CR43613,DRSC13943,45932,2.53e5,,12589,5288,inactive
t,DRSC17815,1.09e5,1.64e5,,3427,7048,inactive
CG8646,DRSC07230,75831,63819,,1542,3308,inactive
CG1648,DRSC06610,1.57e5,4.39e5,99824,5553,25860,inactive

Laid out differently: entries from further up
EloC [DRSC07423]
- firefly Hh reporter signal, replicate 1: 68690
- firefly Hh reporter signal, replicate 2: 69377
- Renilla reference signal, replicate 1: 1361
- Renilla reference signal, replicate 2: 4605
- Call: inactive

E(spl)m4-BFM [DRSC16992]
- firefly Hh reporter signal, replicate 1: 5.98e5
- firefly Hh reporter signal, replicate 2: 98034
- Renilla reference signal, replicate 1: 29252
- Renilla reference signal, replicate 2: 2672
- Call: inactive
